Values quoted from earlier work in patent US20220354871A1, “PHARMACEUTICAL COMPOUNDS AND METHODS OF USE” (DERMCARE-VET PTY LTD, priority 2019, published 2022).
Some results were stated once for a whole list of compounds, not compound by compound.

Details: topical corticosteroid, largely metabolised in the skin

Row | SMILES | Fraction that becomes systemic after topical use [%]
1 | CCCC1O[C@@H]2C[C@H]3[C@@H]4CCC5=CC(=O)C=C[C@]5(C)[C@H]4[C@@H](O)C[C@]3(C)[C@]2(C(=O)CO)O1 (stereo partly drawn) [budesonide, 11β,21-dihydroxy-16α,17α-(butylidenebis(oxy))pregna-1,4-diene-3,20-dione] | 0.4 to 0.7
2 | C[C@]12CCC(=O)C=C1CC[C@@H]1[C@@H]2[C@@H](O)C[C@@]2(C)[C@H]1CC[C@]2(O)C(=O)CO [hydrocortisone] | 0.4 to 0.7
